Our source for the binding values is paper PMC10126157, “High concentrations of soluble endoglin can inhibit BMP9 signaling in non-endothelial cells” (Scientific Reports, 2023).

Protein sequences, listed by entry. Tags and fused reporters are not part of them. Lines headed by an entry give the natural chain unless they say otherwise; changes in a name come on top. Residues count along the entry.
UniProt P27037: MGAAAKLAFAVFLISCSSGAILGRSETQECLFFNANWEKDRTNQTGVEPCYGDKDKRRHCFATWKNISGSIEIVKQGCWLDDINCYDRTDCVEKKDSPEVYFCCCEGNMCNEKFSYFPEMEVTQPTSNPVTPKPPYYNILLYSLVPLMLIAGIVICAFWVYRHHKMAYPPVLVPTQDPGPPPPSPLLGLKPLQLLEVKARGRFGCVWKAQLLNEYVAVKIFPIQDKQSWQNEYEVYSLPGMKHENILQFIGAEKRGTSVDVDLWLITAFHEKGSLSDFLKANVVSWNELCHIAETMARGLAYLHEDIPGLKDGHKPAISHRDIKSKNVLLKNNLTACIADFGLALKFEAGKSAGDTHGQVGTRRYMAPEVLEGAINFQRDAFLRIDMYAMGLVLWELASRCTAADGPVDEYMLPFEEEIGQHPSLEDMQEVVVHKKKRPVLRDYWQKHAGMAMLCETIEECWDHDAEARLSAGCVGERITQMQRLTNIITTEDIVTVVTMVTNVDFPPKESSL
UniProt P37023, residues 22-118: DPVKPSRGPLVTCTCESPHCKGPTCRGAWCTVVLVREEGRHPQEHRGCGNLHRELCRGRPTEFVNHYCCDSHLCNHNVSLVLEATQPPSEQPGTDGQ

The target in assay [1] is ActRIIA-Fc (recombinant chimeric type II receptor) (UniProt P27037). As to the kind of experiment: ELISA; ActRIIA-Fc coated on MaxiSorp plates (1 ug/mL in PBS, overnight, 4 °C), blocked with 1% BSA; BMP9 (15 ng/mL) added with increasing concentrations of sENG(M), sENG(D) or sENG-Fc; bound BMP9 detected with BMP-9 DuoSet ELISA reagents; both purified. (ELISA stands for enzyme-linked immunosorbent assay.)

Assay [2] deals with ALK1-Fc (recombinant chimeric type I receptor) (UniProt P37023). As to the kind of experiment: ELISA; ALK1-Fc coated on MaxiSorp plates (1 ug/mL in PBS, overnight, 4 °C), blocked with 1% BSA; BMP9 added with sENG (control plate); bound BMP9 detected with BMP-9 DuoSet ELISA reagents; both purified.

Results are given in words; binding and its absence hold for the method and conditions named. Some results given as binding are weak or reduced against the parent protein; the word gives no strength.

B1: Bone morphogenetic protein 9 (BMP9) (ligand, human, UniProt Q9UK05 320-429, looked up)
chain: SAGAGSHCQKTSLRVNFEDIGWDSWIIAPKEYEAYECKGGCFFPLADDVTPTKHAIVQTLVHLKFPTKVGKACCVPTKLSPISVLYKDDMGVPTLKYHYEGMSVAECGCR
notes: BMP9 (GDF2), recombinant human protein from R&D Systems; source: bought: R&D Systems (Cat.# 3209-BP), recombinant human protein
As for B1, the binding entry in assay [1] and in assay [2] was “binds” throughout.
